Source: article PMC10603155

Target: EGFP fused with HVD of nsP3 of ONNV-ΔFHL1 (o'nyong-nyong virus)
Experiment: pull-down

B1: Four-and-a-half LIM domain protein 1 (protein, UniProt Q13642 1-323)
chain: MAEKFDCHYCRDPLQGKKYVQKDGHHCCLKCFDKFCANTCVECRKPIGADSKEVHYKNRFWHDTCFRCAKCLHPLANETFVAKDNKILCNKCTTREDSPKCKGCFKAIVAGDQNVEYKGTVWHKDCFTCSNCKQVIGTGSFFPKGEDFYCVTCHETKFAKHCVKCNKAITSGGITYQDQPWHADCFVCVTCSKKLAGQRFTAVEDQYYCVDCYKNFVAKKCAGCKNPITGKRTVSRVSHPVSKARKPPVCHGKRLPLTLFPSANLRGRHPGGERTCPSWVVVLYRKNRSLAAPRGPGLVKAPVWWPMKDNPGTTTASTAKNAP
With B1 the binding was “no binding”.

Results are given in words; binding and its absence hold for the method and conditions named. In cells and extracts the contact can be indirect.
